{"source": "PubChem BioAssay AID504774 | Drosophila RNAi Screening Center, 2011", "test": "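Genes required for cells to withstand methyl methanesulphonate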 (primary screen)", "cells": "Drosophila Kc167 cells", "knock-down reagent": "long dsRNA against Drosophila genes, about 0.25 µg dsRNA per well", "timing": "about 6 days: 3 days knock-down, then 3 days with or without MMS", "challenge": "methyl methanesulphonate 0.004% (w/v) for 3 days after knock-down", "read-out": "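ATP-dependent luminescence as a measure of live cells in MMS-exposed wells, quantile normalised within each plate, with replicate values also given as a mean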", "direction": "mean viability with MMS and viability with MMS: higher = more surviving cells after MMS", "note": "In all, the deposit lists about 23,000 reagents; shown is an unselected part of those that have a named target and a result. 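Values are quantile-normalised luminescence on an arbitrary scale; higher means more cells surviving MMS.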 Not all columns of the deposit are shown. No sequences are given here."}
The first 2 records as a preview:
{"Gene": "caup (caupolican)", "DRSC id": "DRSC11334", "mean viability with MMS": 3.05e6, "viability with MMS, replicate 1": 3.47e6}
{"Gene": "caup (caupolican)", "DRSC id": "DRSC23050", "mean viability with MMS": 3.54e6, "viability with MMS, replicate 1": 4.03e6}

The list itself, repeating the preview:
{"Gene": "caup (caupolican)", "DRSC id": "DRSC11334", "mean viability with MMS": 3.05e6, "viability with MMS, replicate 1": 3.47e6}
{"Gene": "caup (caupolican)", "DRSC id": "DRSC23050", "mean viability with MMS": 3.54e6, "viability with MMS, replicate 1": 4.03e6}
{"Gene": "CG17145", "DRSC id": "DRSC10247", "mean viability with MMS": 3.39e6, "viability with MMS, replicate 1": 3.82e6}
{"Gene": "Klp64D (Kinesin-like protein at 64D)", "DRSC id": "DRSC11204", "mean viability with MMS": 3.68e6, "viability with MMS, replicate 1": 4.31e6}
{"Gene": "CG4570", "DRSC id": "DRSC15602", "mean viability with MMS": 3.30e6, "viability with MMS, replicate 1": 3.79e6}
{"Gene": "Lamtor1 (Late endosomal/lysosomal adaptor, MAPK and MTOR activator 1)", "DRSC id": "DRSC10183", "mean viability with MMS": 3.55e6, "viability with MMS, replicate 1": 4.01e6}
{"Gene": "Rh7 (Rhodopsin 7)", "DRSC id": "DRSC10529", "mean viability with MMS": 3.52e6, "viability with MMS, replicate 1": 3.90e6}
{"Gene": "CG6962", "DRSC id": "DRSC16153", "mean viability with MMS": 3.30e6, "viability with MMS, replicate 1": 3.73e6}
{"Gene": "CG13407", "DRSC id": "DRSC14583", "mean viability with MMS": 3.80e6, "viability with MMS, replicate 1": 4.39e6}
{"Gene": "conu (conundrum)", "DRSC id": "DRSC07810", "mean viability with MMS": 3.46e6, "viability with MMS, replicate 1": 3.80e6}
{"Gene": "CG1979", "DRSC id": "DRSC12495", "mean viability with MMS": 3.48e6, "viability with MMS, replicate 1": 4.02e6}
{"Gene": "CG6231", "DRSC id": "DRSC15997", "mean viability with MMS": 3.48e6, "viability with MMS, replicate 1": 3.85e6}
{"Gene": "CR30409 (pseudo)", "DRSC id": "DRSC22058", "mean viability with MMS": 3.49e6, "viability with MMS, replicate 1": 4.00e6}
{"Gene": "CG15756", "DRSC id": "DRSC19721", "mean viability with MMS": 3.65e6, "viability with MMS, replicate 1": 4.18e6}
{"Gene": "amx (almondex)", "DRSC id": "DRSC18736", "mean viability with MMS": 3.36e6, "viability with MMS, replicate 1": 3.82e6}
{"Gene": "Atg2 (Autophagy-related 2)", "DRSC id": "DRSC08273", "mean viability with MMS": 3.35e6, "viability with MMS, replicate 1": 3.82e6}
{"Gene": "Or47a (Odorant receptor 47a)", "DRSC id": "DRSC07491", "mean viability with MMS": 3.57e6, "viability with MMS, replicate 1": 3.87e6}
{"Gene": "CG3149", "DRSC id": "DRSC17732", "mean viability with MMS": 3.68e6, "viability with MMS, replicate 1": 4.50e6}
{"Gene": "CG42747", "DRSC id": "DRSC10209", "mean viability with MMS": 3.56e6, "viability with MMS, replicate 1": 4.06e6}
{"Gene": "CG42747", "DRSC id": "DRSC10210", "mean viability with MMS": 3.55e6, "viability with MMS, replicate 1": 4.10e6}
{"Gene": "CG12951", "DRSC id": "DRSC14579", "mean viability with MMS": 3.51e6, "viability with MMS, replicate 1": 4.01e6}
{"Gene": "Or85f (Odorant receptor 85f)", "DRSC id": "DRSC16769", "mean viability with MMS": 3.57e6, "viability with MMS, replicate 1": 4.06e6}
{"Gene": "CG32773 (retired record)", "DRSC id": "DRSC17330", "mean viability with MMS": 3.49e6, "viability with MMS, replicate 1": 3.88e6}
{"Gene": "CG11837", "DRSC id": "DRSC14397", "mean viability with MMS": 3.36e6, "viability with MMS, replicate 1": 3.80e6}
{"Gene": "nebu (nebulosa)", "DRSC id": "DRSC09807", "mean viability with MMS": 3.52e6, "viability with MMS, replicate 1": 4.05e6}
{"Gene": "nebu (nebulosa)", "DRSC id": "DRSC09808", "mean viability with MMS": 3.65e6, "viability with MMS, replicate 1": 4.12e6}
{"Gene": "mi (minus)", "DRSC id": "DRSC04498", "mean viability with MMS": 3.49e6, "viability with MMS, replicate 1": 3.95e6}
{"Gene": "CR18166 (pseudo)", "DRSC id": "DRSC17260", "mean viability with MMS": 3.61e6, "viability with MMS, replicate 1": 4.06e6}
{"Gene": "CR18166 (pseudo)", "DRSC id": "DRSC18147", "mean viability with MMS": 3.54e6, "viability with MMS, replicate 1": 3.88e6}
{"Gene": "CG17002", "DRSC id": "DRSC04978", "mean viability with MMS": 3.61e6, "viability with MMS, replicate 1": 4.05e6}
{"Gene": "CG17490", "DRSC id": "DRSC03794", "mean viability with MMS": 3.55e6, "viability with MMS, replicate 1": 4.03e6}
{"Gene": "CG17490", "DRSC id": "DRSC03797", "mean viability with MMS": 3.54e6, "viability with MMS, replicate 1": 4.09e6}
{"Gene": "lectin-24A", "DRSC id": "DRSC00604", "mean viability with MMS": 3.48e6, "viability with MMS, replicate 1": 3.92e6}
{"Gene": "CG34204", "DRSC id": "DRSC03897", "mean viability with MMS": 3.47e6, "viability with MMS, replicate 1": 3.91e6}
{"Gene": "CG2233", "DRSC id": "DRSC18217", "mean viability with MMS": 3.57e6, "viability with MMS, replicate 1": 3.87e6}
